Measurements as given in PubChem BioAssay AID256 (DTP/NCI, 2004).
The list is a part of this screen's results and no random one: it gathers tests that were run many times, whatever their T/C, doses with no T/C, and many T/C values between a quarter and a half above the control. Other doses and runs of a compound stand elsewhere. T/C: endpoint of the treated group in % of that of the vehicle group. Some doses have a count of surviving animals in place of a T/C: the source holds a T/C of zero for them, seemingly a mark for toxic or unscored doses. Some doses without a T/C left all or most animals alive at the check, yet need not have been tolerated: the source hardly ever lists a survival T/C far under the control, and the zero likely stands for such cases as well. Counts of survivors are from the toxicity check (mostly the fifth day) where no day follows; animals may have died later. Schedules are NCI's codes, read here as Q, the interval in days (D) or hours (H), X, the number of doses. Some doses were run more than once; their values stand side by side, smallest first. For survival time, this PubChem deposit counts one and a half times the control or more as active, and values a quarter to a half above the control carry no call in these data; other NCI protocols may use other cut-offs. Counts like (3×) say how often a value occurs here. Some schedules carry Z or #; the key to these is not given. Some T/C values carry the count of animals alive at the toxicity check (mostly the fifth day); without a count, all were alive then.

Test system: CD2F1 mice, L1210 leukemia ip, survival T/C
Experiment: NCI In Vivo Anticancer Drug Screen. Data for tumor model L1210 Leukemia (intraperitoneal) in CD2F1 (CDF1) mice
Settings: higher T/C = longer survival
In short: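 Antitumor effect is scored in animals hosting a serially transplanted tumor. Values compare compound-dosed animals against vehicle-only controls as a simple quotient.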

[1] = T/C endpoint: mean survival time, dose: 75.0 mg/kg/injection, schedule: Q01DX009 (ip), vehicle: Klucel (hydroxypropylcellulose) (HPC)
[2] = T/C endpoint: mean survival time, dose: 200.0 mg/kg/injection, schedule: Q01DX009 (ip), vehicle: saline
[3] = T/C endpoint: mean survival time, dose: 400.0 mg/kg/injection, schedule: Q04DX003 (ip), vehicle: saline

## CN(C)N=Nc1ccccc1C(=O)NC#N
T/C endpoint: mean survival time, dose: 18.75 mg/kg/injection, schedule: Q01DX009 (ip), vehicle: Klucel (hydroxypropylcellulose) (HPC)
  T/C: 103, 113, 116, 121 % of control
T/C endpoint: mean survival time, dose: 37.5 mg/kg/injection, schedule: Q01DX009 (ip), vehicle: Klucel (hydroxypropylcellulose) (HPC)
  T/C: 118, 125 (2×), 128 % of control
[1]
  T/C: 110 and 114 % of control [5 of 6 alive]
  survivor count: 0 of 6 and 3 of 6
T/C endpoint: mean survival time, dose: 150.0 mg/kg/injection, schedule: Q01DX009 (ip), vehicle: Klucel (hydroxypropylcellulose) (HPC)
  survivor count: 0 of 6
T/C endpoint: mean survival time, dose: 300.0 mg/kg/injection, schedule: Q01DX009 (ip), vehicle: Klucel (hydroxypropylcellulose) (HPC)
  survivor count: 0 of 6

## O=c1nc2c(ncn2C2OC(CO)C(O)C2O)c(NCCc2ccccc2)[nH]1 (centres undefined)
T/C endpoint: mean survival time, dose: 200.0 mg/kg/injection, schedule: Q01DX005 (ip), vehicle: water
  T/C: 125 % of control [5 of 6 alive]

## Cc1nc(C(Cl)(Cl)Cl)[nH]c(=O)c1SCCO
T/C endpoint: median survival time, dose: 50.0 mg/kg/injection, schedule: Q01DX009 (ip), vehicle: distilled water + alcohol
  T/C: 97, 101, 102, 109 % of control
T/C endpoint: median survival time, dose: 100.0 mg/kg/injection, schedule: Q01DX009 (ip), vehicle: distilled water + alcohol
  T/C: 101, 105, 110, 113 % of control
T/C endpoint: median survival time, dose: 200.0 mg/kg/injection, schedule: Q01DX009 (ip), vehicle: distilled water + alcohol
  T/C: 100, 106, 121, 126 % of control
T/C endpoint: median survival time, dose: 400.0 mg/kg/injection, schedule: Q01DX009 (ip), vehicle: distilled water + alcohol
  T/C: 104 [5 of 6 alive], 117 [4 of 6 alive], 137 [4 of 6 alive], 162 % of control [5 of 6 alive]
T/C endpoint: median survival time, dose: 400.0 mg/kg/injection, schedule: Q01DX009 (sc), vehicle: distilled water + Tween-80 + alcohol
  survivor count: 3 of 6

## CCOC(=O)CCC(NC(=O)OCCNCCCl)C(=O)OCC (centres undefined)
T/C endpoint: mean survival time, dose: 640.0 mg/kg/injection, schedule: Q01DX Z (ip), vehicle: saline
  T/C: 131 % of control

## O=C1C(=O)c2ccccc2C(O)=C1CCCc1ccc(OCc2ccccc2)cc1
T/C endpoint: mean survival time, dose: 50.0 mg/kg/injection, schedule: Q01DX009 (ip), vehicle: saline
  survivor count: 6 of 6
T/C endpoint: mean survival time, dose: 100.0 mg/kg/injection, schedule: Q01DX009 (ip), vehicle: saline
  survivor count: 4 of 6
[2]
  survivor count: 5 of 6
[3]
  survivor count: 6 of 6

## CC(/C=N/N(C)C)=N/[N+](C)(C)C
[2]
  survivor count: 1 of 3

## COc1ccc(CC(N)C(=O)O)cc1N(CCCl)CCCl (centres undefined)
T/C endpoint: mean survival time, dose: 4.5 mg/kg/injection, schedule: Q01DX001 (ip), vehicle: carboxymethylcellulose (CMC)
  T/C: 142 % of control
T/C endpoint: mean survival time, dose: 7.0 mg/kg/injection, schedule: Q01DX001 (ip), vehicle: carboxymethylcellulose (CMC)
  T/C: 140 % of control

## COc1cccc2c1C(=O)c1c(O)c3c(c(O)c1C2=O)C[C@@](O)(C(=O)CO)C[C@@H]3OC1CC(NC=O)C(O)C(C)O1 (some centres undefined)
T/C endpoint: mean survival time, dose: 3.13 mg/kg/injection, schedule: Q04DX003 (ip), vehicle: water
  survivor count: 6 of 6

## Cc1occc1S(N)(=O)=O
T/C endpoint: mean survival time, dose: 150.0 mg/kg/injection, schedule: Q04DX002 (ip), vehicle: saline with Tween-80
  survivor count: 1 of 3
T/C endpoint: mean survival time, dose: 300.0 mg/kg/injection, schedule: Q04DX002 (ip), vehicle: saline with Tween-80
  survivor count: 1 of 3

## O=C1C=CC(=O)N1c1cccc(N2C(=O)C=CC2=O)c1
T/C endpoint: mean survival time, dose: 16.0 mg/kg/injection, schedule: Q01DX009 (ip), vehicle: saline
  survivor count: 0 of 6

## Clc1nc2n[nH]nc2nc1Cl
T/C endpoint: mean survival time, dose: 100.0 mg/kg/injection, schedule: Q04DX003 (ip), vehicle: saline
  survivor count: 0 of 6
T/C endpoint: mean survival time, dose: 200.0 mg/kg/injection, schedule: Q04DX003 (ip), vehicle: saline
  survivor count: 0 of 6
[3]
  survivor count: 0 of 6

## COCc1nnc2nc[nH]c(=O)c2n1
T/C endpoint: mean survival time, dose: 400.0 mg/kg/injection, schedule: Q01DX001 (ip), vehicle: carboxymethylcellulose (CMC)
  survivor count: 1 of 6

## [Cl][Pt+2][Cl].[NH-]CC(O)c1ccc2oc3ccccc3c2c1.[NH-]CC(O)c1ccc2oc3ccccc3c2c1 (centres undefined)
T/C endpoint: median survival time, dose: 160.0 mg/kg/injection, schedule: Q04DX003 (ip), vehicle: saline with Tween-80
  survivor count: 2 of 6
T/C endpoint: median survival time, dose: 320.0 mg/kg/injection, schedule: Q04DX003 (ip), vehicle: saline with Tween-80
  survivor count: 0 of 6

## Ic1sc(I)c(I)c1I
T/C endpoint: mean survival time, dose: 100.0 mg/kg/injection, schedule: Q01DX001 (ip), vehicle: saline with Tween-80
  survivor count: 0 of 3
T/C endpoint: mean survival time, dose: 200.0 mg/kg/injection, schedule: Q01DX001 (ip), vehicle: saline with Tween-80
  survivor count: 1 of 3
T/C endpoint: mean survival time, dose: 400.0 mg/kg/injection, schedule: Q01DX001 (ip), vehicle: saline with Tween-80
  survivor count: 0 of 3

## O=C(O)/C=C/C(=O)Nc1cccc2ccccc12
T/C endpoint: mean survival time, dose: 400.0 mg/kg/injection, schedule: Q04DX003 (ip), vehicle: saline with Tween-80
  survivor count: 3 of 6

## COc1cc([C@@H]2c3cc4c(cc3[C@@H](OC3OC5COC(C)OC5C(O)C3O)[C@H]3COC(=O)[C@H]23)OCO4)cc(OC)c1O (some centres undefined)
T/C endpoint: mean survival time, dose: 0.25 mg/kg/injection, schedule: Q03HX024 (ip), vehicle: saline
  T/C: 135 % of control
T/C endpoint: mean survival time, dose: 1.0 mg/kg/injection, schedule: Q01DX009 (ip), vehicle: saline
  T/C: 137 % of control
T/C endpoint: mean survival time, dose: 4.0 mg/kg/injection, schedule: Q03HX024 (ip), vehicle: saline
  survivor count: 9 of 10
T/C endpoint: mean survival time, dose: 4.0 mg/kg/injection, schedule: Q04DX003 (ip), vehicle: saline
  T/C: 141 % of control
T/C endpoint: mean survival time, dose: 64.0 mg/kg/injection, schedule: Q04DX003 (ip), vehicle: saline
  survivor count: 8 of 10
T/C endpoint: median survival time, dose: 8.0 mg/kg/injection, schedule: Q01DX009 (ip), vehicle: other
  T/C: 143 % of control
T/C endpoint: median survival time, dose: 8.0 mg/kg/injection, schedule: Q03HX016 (ip), vehicle: other
  survivor count: 6 of 10
T/C endpoint: median survival time, dose: 16.0 mg/kg/injection, schedule: Q01DX001 (sc), vehicle: other
  T/C: 143 % of control
T/C endpoint: median survival time, dose: 16.0 mg/kg/injection, schedule: Q01DX009 (ip), vehicle: saline
  T/C: 127 % of control
T/C endpoint: median survival time, dose: 16.0 mg/kg/injection, schedule: Q03HX008 (ip), vehicle: other
  survivor count: 1 of 10
T/C endpoint: median survival time, dose: 16.0 mg/kg/injection, schedule: Q03HX016 (ip), vehicle: other
  survivor count: 1 of 10
T/C endpoint: median survival time, dose: 16.0 mg/kg/injection, schedule: Q03HX024 (ip), vehicle: other
  survivor count: 3 of 10
T/C endpoint: median survival time, dose: 32.0 mg/kg/injection, schedule: Q03HX008 (ip), vehicle: other
  survivor count: 3 of 10
T/C endpoint: median survival time, dose: 32.0 mg/kg/injection, schedule: Q03HX024 (oral), vehicle: Klucel (hydroxypropylcellulose) (HPC)
  survivor count: 10 of 10
T/C endpoint: median survival time, dose: 64.0 mg/kg/injection, schedule: Q01DX009 (oral), vehicle: Klucel (hydroxypropylcellulose) (HPC)
  T/C: 133 % of control
T/C endpoint: median survival time, dose: 64.0 mg/kg/injection, schedule: Q03HX016 (oral), vehicle: Klucel (hydroxypropylcellulose) (HPC)
  T/C: 144 % of control
T/C endpoint: median survival time, dose: 128.0 mg/kg/injection, schedule: Q01DX001 (oral), vehicle: other
  T/C: 125 and 137 % of control
T/C endpoint: median survival time, dose: 128.0 mg/kg/injection, schedule: Q01DX009 (oral), vehicle: Klucel (hydroxypropylcellulose) (HPC)
  T/C: 133 % of control
T/C endpoint: median survival time, dose: 128.0 mg/kg/injection, schedule: Q01DX009 (oral), vehicle: other
  T/C: 125 and 137 % of control
T/C endpoint: median survival time, dose: 128.0 mg/kg/injection, schedule: Q03HX024 (oral), vehicle: Klucel (hydroxypropylcellulose) (HPC)
  survivor count: 10 of 10
T/C endpoint: median survival time, dose: 256.0 mg/kg/injection, schedule: Q01DX001 (ip), vehicle: other
  survivor count: 1 of 10
T/C endpoint: median survival time, dose: 256.0 mg/kg/injection, schedule: Q01DX009 (oral), vehicle: other
  T/C: 125 and 131 % of control
T/C endpoint: median survival time, dose: 512.0 mg/kg/injection, schedule: Q01DX001 (oral), vehicle: other
  T/C: 137 % of control
T/C endpoint: median survival time, dose: 512.0 mg/kg/injection, schedule: Q04DX003 (oral), vehicle: Klucel (hydroxypropylcellulose) (HPC)
  T/C: 127 % of control
T/C endpoint: median survival time, dose: 1024.0 mg/kg/injection, schedule: Q01DX001 (oral), vehicle: other
  T/C: 137 % of control
T/C endpoint: median survival time, dose: 1024.0 mg/kg/injection, schedule: Q04DX003 (oral), vehicle: Klucel (hydroxypropylcellulose) (HPC)
  T/C: 144 % of control

## BrC1c2cccc3cccc(c23)C1Br (centres undefined)
T/C endpoint: mean survival time, dose: 200.0 mg/kg/injection, schedule: Q01DX009 (ip), vehicle: saline with Tween-80
  survivor count: 5 of 6

## NNC(=O)c1cccc[n+]1[O-]
T/C endpoint: mean survival time, dose: 200.0 mg/kg/injection, schedule: Q01DX001 (ip), vehicle: water
  survivor count: 0 of 6
T/C endpoint: mean survival time, dose: 400.0 mg/kg/injection, schedule: Q01DX001 (ip), vehicle: water
  survivor count: 0 of 6
T/C endpoint: mean survival time, dose: 800.0 mg/kg/injection, schedule: Q01DX001 (ip), vehicle: water
  survivor count: 0 of 6
